Measured values published in PubChem BioAssay AID1347075 (National Center for Advancing Translational Sciences (NCATS), 2019).
In all, about 400,000 compounds went through this assay and about 5,500 (1.4%) were called active. This list was built around the results that the source calls inconclusive (neither active nor inactive); the mix of calls is not that of the screen. Calls come from the whole dose curve; as a rule, active = well fitted cell-killing curve with a large enough effect; inconclusive = small, poorly fitted or top-dose-only effect, or effect the other way; inactive = flat fitted curve, though single readings scatter. Where the call is inconclusive, the potency comes from a doubtful curve fit.

assay: qHTS assay for MDR1-selective chemotherapeutics: Primary screen using the parental adenocarcinoma cell KB-3-1; details: KB-3-1 viability, CellTiter-Glo ATP luminescence, 72 h; activity change, negative = cytotoxic: at 46.1 µM (top of the series); note: nearly all actives have a fitted effect of over 60% in size
Outline: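 Screening of KB-3-1 cells (DMEM, 10% FBS, phenol-red free) ran from lowest to highest compound concentration; after 72 h at 37 °C viability was read luminescently and curves fitted.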
% is set by controls: 0 for no effect and ±100 for the full control effect; potency is the fitted concentration of half-maximal effect.

| Structure (SMILES) | activity change, negative = cytotoxic | Potency |
| --- | --- | --- |
| N#CCCN(C(=O)CSc1nc2nc(-c3cccs3)cc(C(F)(F)F)c2c(=O)[nH]1)c1ccccc1 | inactive: -1.61% | – |
| CCCCN(CCCNC(=O)C1CCN(C(=O)c2cc3sccc3n2C)CC1)Cc1ccccc1 | – | inconclusive: 2.91 µM [cytotoxic, partial curve, poor fit] |
| O=C(Nc1ccccc1O)c1ccc(Cl)cc1 | – | inconclusive: 16.4 µM [cytotoxic, single point] |
| CCOC(=O)/C=C1\CN(Cc2cc(OC)c(OC)c(OC)c2)S(=O)(=O)c2ccc(C(F)(F)F)cc21 | – | inconclusive: 25.9 µM [cytotoxic, single point] |
| CCC1=Nc2cc(C(=O)NCC3CCCO3)ccc2Sc2ccc(Cl)cc21 (stereo not drawn) | – | active: 9.2 µM |
| CCCOP(=O)(OCCC)C(Nc1ccc(C(C)C)cc1)c1ccc([N+](=O)[O-])cc1 (stereo not drawn) | – | inconclusive: 29.1 µM [cytotoxic, single point] |
| CCCCCCc1cc2cc(C(=O)Nc3ccc(OC)cc3)c(=O)oc2cc1O | – | active: 8.2 µM |
| CCOC(=O)c1cc(NC(=O)Cc2ccc(S(=O)(=O)N3CCOCC3)s2)cc(C(=O)OCC)c1 | inactive: 0% | – |
| COc1ccc(OC)c(NC(=O)Cn2cnc3onc(-c4ccc(Cl)cc4)c3c2=O)c1 | – | inconclusive: 5.17 µM [cytotoxic, full curve, poor fit] |
| C=CCn1c(=NC(=O)c2ccco2)sc2cc(C(=O)OCC)ccc21 | – | inconclusive: 25.9 µM [cytotoxic, single point] |
| Cc1c(Cl)c([N+](=O)[O-])nn1CCCC(=O)Nc1c(Cl)cccc1Cl | inactive: -5.89% | – |
| COc1ccc(OCC2c3cc(OC)c(OC)cc3CCN2C(=O)c2c(F)cccc2F)cc1 (stereo not drawn) | – | inconclusive: 20.6 µM [cytotoxic, partial curve, poor fit] |
| CCOC(=O)[C@H]1[C@H]2COc3ccc(Cl)cc3[C@@H]2N2C(=O)CN(Cc3ccc(C)cc3)C(=O)[C@@]12C | – | inconclusive: 29.1 µM [cytotoxic, single point] |
| Cc1ccc(S(=O)(=O)N2CCC(NC(=O)c3cccc(C)c3)CC2)cc1 | inactive: 0.383% | – |
| COc1ccc(N2CCN(CCCn3c(=S)[nH]c4ncccc4c3=O)CC2)cc1 | – | active: 6.51 µM |
| Cc1ccc(N(Cc2ccc(C(=O)NN=C3CCN(C)CC3)cc2)S(C)(=O)=O)cc1C | inactive: -3.51% | – |
| C=CCN1C(=O)/C(=N/n2cnnc2)c2ccccc21 | – | inconclusive: 29.1 µM [cytotoxic, single point] |
| COc1ccc(CN2C(=O)C(CC(=O)NCc3cccc4ccccc34)CC(C(=O)N(C(C)C)C(C)C)=C2C)cc1 (stereo not drawn) | – | inconclusive: 29.1 µM [cytotoxic, single point] |

One compound at a time, from the list above. Order of values: activity change, negative = cytotoxic	Potency
O=C(Nc1ccccc1O)c1ccc(Cl)cc1 is listed as –	inconclusive: 16.4 µM [cytotoxic, single point]
COc1ccc(CN2C(=O)C(CC(=O)NCc3cccc4ccccc34)CC(C(=O)N(C(C)C)C(C)C)=C2C)cc1 (stereo not drawn) is listed as –	inconclusive: 29.1 µM [cytotoxic, single point]
